Data source: PubChem BioAssay AID1224826 (NIAID, 2016)

Aim: 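Knock-downs that raise or lower Tnf reporter signal after endotoxin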 (primary screen)
System: RAW264.7 G9 macrophages from mouse bearing reporters for p65 (GFP) and the Tnf promoter (mCherry)
Knock-down reagent: siRNA pool against mouse genes, 100 nM
Duration: 16 h of LPS stimulation, after 2 days of siRNA transfection
Treatment: bacterial lipopolysaccharide (Salmonella minnesota R595), 10 ng/ml
Measured: 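Nuclear mCherry signal of the Tnf promoter reporter measured by imaging after background removal, scaled to each plate median and turned into robust z-scores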
Scale: Tnf reporter robust z-score: higher = stronger Tnf promoter reporter signal after LPS
Active means: 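Called active when robust z-score is at most -1.3, matching the median of the Tlr4 knock-down control, or over 3; control wells and wells with under 50 cells never active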
Meaning of the calls: active = Tnf reporter clearly lowered or raised; inactive = no clear change in Tnf reporter
This is a random part of about 17,000 deposited reagents. About 1,110 of them (6.6%) count as active. 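Active means lowered or raised reporter signal; replicate intensities are raw and not normalised per plate.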 Unmarked entries are inactive. Not all columns of the deposit are shown.

gene	Tnf reporter robust z-score	fewer than 50 cells in well
Tbc1d2	-0.6	enough cells in well
Slc30a9		fewer than 50 cells per well; well left out of calls
Bhlhe40	-1.1	enough cells in well
Or8b3b	-0.59	enough cells in well
Prl7a2	-0.06	enough cells in well
Csnk2a1	1.99	enough cells in well
Ankrd52	-1.37 (active)	enough cells in well
Emc9	-1.12	enough cells in well
Siglech	-0.41	enough cells in well
Dync1li2	-0.81	enough cells in well
Pkn2	-0.76	enough cells in well
Mixl1	0.76	enough cells in well
Gm4922	-0.26	enough cells in well
Rock2	-1.19	enough cells in well
Snx20	0.15	enough cells in well
Rhbg		fewer than 50 cells per well; well left out of calls
Ankrd10	-0.77	enough cells in well
Ggn	-1.51 (active)	enough cells in well
Wdr31	-0.09	enough cells in well
Tmpo	0.43	enough cells in well
Mgat3	-0.61	enough cells in well
Mtg1	0.87	enough cells in well
Dph7	0.05	enough cells in well
Ffar3	-1.07	enough cells in well

Quoted from the listing for reference:
gene	Tnf reporter robust z-score	fewer than 50 cells in well
Dph7	0.05	enough cells in well
Ffar3	-1.07	enough cells in well
